# According to the supplement of paper PMC10849652:
# The chains behind the UniProt entries cited, without tags or fusion partners. Where a name states a change or a piece, a line headed by the entry shows the natural chain unless it says otherwise.
# UniProt P18440: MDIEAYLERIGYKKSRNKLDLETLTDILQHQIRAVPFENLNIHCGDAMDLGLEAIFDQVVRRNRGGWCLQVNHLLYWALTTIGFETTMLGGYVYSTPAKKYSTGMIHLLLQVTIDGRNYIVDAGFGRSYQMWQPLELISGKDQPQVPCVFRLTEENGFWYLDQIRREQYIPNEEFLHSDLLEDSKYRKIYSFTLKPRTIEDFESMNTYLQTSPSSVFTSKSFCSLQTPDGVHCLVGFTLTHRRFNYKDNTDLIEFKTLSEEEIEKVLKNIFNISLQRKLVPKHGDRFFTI
# UniProt Q6XQN6: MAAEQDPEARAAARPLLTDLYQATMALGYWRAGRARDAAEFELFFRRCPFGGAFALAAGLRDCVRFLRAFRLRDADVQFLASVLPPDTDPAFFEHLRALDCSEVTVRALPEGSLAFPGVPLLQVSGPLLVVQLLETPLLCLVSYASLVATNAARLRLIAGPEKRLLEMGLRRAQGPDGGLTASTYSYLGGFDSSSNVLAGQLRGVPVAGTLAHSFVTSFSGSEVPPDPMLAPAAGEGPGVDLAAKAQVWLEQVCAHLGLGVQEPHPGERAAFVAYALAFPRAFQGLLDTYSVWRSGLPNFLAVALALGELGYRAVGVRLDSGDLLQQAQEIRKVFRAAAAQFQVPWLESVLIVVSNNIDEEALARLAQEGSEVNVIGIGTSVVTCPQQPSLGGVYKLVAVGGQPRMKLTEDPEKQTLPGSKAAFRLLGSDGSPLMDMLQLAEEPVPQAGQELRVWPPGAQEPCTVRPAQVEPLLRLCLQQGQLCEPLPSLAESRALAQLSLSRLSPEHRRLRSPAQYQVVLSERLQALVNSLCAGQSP
# UniProt Q92614: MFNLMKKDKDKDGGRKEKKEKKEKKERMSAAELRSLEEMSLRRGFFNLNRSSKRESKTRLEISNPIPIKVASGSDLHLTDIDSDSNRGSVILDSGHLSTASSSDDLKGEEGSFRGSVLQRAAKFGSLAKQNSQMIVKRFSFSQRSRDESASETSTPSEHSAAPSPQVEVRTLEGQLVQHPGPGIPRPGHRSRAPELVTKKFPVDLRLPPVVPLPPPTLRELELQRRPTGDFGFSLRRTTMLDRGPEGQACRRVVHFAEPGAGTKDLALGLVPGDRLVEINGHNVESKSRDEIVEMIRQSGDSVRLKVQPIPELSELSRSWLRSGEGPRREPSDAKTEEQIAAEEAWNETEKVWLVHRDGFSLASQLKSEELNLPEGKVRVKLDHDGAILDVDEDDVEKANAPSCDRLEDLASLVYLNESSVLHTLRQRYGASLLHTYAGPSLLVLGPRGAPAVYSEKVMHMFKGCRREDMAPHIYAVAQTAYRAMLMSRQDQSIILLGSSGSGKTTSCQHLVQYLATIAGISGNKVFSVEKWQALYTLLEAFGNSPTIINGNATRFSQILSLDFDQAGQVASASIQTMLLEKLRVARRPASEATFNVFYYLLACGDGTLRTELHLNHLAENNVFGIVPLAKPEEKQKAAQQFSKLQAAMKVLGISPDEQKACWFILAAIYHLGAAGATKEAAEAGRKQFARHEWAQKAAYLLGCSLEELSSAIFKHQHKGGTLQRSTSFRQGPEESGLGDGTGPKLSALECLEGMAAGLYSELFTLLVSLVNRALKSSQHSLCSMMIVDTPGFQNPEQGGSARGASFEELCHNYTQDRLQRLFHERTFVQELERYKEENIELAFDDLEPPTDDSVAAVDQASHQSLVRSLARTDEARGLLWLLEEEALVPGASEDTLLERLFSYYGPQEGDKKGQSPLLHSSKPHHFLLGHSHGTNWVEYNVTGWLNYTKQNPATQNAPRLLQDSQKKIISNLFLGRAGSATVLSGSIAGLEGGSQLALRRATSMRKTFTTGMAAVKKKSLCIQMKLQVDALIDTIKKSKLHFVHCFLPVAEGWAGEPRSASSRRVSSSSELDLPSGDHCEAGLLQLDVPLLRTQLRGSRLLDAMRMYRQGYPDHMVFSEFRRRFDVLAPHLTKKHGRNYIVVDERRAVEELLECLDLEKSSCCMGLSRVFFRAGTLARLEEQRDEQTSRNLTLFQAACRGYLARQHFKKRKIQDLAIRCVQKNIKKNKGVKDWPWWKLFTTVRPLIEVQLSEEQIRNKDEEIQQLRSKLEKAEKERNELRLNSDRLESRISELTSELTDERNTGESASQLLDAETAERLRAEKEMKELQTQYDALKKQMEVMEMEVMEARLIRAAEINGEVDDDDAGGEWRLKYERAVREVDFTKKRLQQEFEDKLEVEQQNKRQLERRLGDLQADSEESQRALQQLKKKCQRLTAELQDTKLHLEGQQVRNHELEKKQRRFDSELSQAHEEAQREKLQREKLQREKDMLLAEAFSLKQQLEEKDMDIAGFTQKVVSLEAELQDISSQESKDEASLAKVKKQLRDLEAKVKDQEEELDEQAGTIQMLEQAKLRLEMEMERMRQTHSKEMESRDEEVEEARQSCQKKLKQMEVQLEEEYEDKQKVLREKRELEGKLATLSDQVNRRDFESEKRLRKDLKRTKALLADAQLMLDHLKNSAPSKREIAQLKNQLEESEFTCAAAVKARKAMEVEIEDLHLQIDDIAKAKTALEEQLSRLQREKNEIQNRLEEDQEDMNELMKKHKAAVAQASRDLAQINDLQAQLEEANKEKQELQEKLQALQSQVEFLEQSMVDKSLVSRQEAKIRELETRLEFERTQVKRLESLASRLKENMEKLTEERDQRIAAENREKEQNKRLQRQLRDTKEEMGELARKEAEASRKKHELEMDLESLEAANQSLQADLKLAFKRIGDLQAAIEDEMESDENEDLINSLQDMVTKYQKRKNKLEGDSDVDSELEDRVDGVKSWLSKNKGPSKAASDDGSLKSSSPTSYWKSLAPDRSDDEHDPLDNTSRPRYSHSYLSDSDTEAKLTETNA
# UniProt Q96I59: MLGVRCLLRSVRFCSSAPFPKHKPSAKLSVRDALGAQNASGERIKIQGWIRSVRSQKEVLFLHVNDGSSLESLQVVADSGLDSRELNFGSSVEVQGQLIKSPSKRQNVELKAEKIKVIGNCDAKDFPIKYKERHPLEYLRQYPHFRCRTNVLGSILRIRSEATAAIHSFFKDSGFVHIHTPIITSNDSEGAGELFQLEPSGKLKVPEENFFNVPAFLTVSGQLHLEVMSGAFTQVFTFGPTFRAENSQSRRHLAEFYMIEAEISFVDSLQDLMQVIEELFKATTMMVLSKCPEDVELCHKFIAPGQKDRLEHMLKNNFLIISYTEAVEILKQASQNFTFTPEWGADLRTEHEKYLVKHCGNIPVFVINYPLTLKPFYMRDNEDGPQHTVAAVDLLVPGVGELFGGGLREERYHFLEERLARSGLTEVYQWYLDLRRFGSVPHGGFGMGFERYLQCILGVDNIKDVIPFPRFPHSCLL
# UniProt Q9BTX1: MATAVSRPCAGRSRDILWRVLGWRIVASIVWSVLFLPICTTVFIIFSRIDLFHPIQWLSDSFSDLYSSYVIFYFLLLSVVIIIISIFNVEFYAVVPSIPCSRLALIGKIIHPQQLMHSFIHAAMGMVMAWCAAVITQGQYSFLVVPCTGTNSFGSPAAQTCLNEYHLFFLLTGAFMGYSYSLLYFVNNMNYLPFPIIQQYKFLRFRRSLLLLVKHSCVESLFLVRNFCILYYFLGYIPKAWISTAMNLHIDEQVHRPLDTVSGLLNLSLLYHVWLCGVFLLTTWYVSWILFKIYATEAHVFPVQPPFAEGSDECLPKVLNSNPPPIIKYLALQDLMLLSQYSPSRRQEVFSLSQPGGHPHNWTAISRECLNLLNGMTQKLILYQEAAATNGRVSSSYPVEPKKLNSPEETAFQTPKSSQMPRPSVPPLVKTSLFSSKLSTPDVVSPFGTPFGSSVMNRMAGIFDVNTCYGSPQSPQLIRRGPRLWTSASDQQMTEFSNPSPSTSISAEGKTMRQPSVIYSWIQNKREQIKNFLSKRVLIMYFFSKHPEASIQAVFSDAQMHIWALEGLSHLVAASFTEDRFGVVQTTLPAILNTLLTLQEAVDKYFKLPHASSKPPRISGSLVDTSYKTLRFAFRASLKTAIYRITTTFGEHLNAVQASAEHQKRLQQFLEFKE
# UniProt P62166, whole entry, looked up: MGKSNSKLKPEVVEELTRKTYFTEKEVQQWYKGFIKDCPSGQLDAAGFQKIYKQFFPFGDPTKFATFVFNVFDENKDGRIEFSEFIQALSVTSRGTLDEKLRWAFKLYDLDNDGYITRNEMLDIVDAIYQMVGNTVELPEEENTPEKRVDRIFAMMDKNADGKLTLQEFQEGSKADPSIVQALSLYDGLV
# UniProt P41227: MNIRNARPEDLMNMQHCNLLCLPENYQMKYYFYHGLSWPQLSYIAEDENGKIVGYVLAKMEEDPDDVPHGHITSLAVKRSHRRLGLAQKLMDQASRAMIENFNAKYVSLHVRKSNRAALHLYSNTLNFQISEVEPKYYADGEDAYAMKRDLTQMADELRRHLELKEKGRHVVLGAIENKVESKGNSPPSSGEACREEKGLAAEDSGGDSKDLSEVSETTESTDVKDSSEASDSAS
# UniProt Q9HCD5: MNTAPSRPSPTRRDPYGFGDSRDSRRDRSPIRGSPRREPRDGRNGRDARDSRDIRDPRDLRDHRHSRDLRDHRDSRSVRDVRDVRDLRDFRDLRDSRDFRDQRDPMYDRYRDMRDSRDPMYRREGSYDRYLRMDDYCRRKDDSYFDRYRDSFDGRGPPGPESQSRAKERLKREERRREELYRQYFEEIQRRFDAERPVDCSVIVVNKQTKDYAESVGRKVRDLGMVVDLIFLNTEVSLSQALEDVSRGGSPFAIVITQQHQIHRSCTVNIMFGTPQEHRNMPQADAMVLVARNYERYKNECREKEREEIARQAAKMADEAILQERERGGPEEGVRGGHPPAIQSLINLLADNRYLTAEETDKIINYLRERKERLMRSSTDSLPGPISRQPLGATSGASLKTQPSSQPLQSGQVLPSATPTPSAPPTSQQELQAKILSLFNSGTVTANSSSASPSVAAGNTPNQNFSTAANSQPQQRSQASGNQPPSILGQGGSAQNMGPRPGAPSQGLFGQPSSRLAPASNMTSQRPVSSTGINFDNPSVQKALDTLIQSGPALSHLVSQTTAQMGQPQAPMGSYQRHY
# UniProt Q15596: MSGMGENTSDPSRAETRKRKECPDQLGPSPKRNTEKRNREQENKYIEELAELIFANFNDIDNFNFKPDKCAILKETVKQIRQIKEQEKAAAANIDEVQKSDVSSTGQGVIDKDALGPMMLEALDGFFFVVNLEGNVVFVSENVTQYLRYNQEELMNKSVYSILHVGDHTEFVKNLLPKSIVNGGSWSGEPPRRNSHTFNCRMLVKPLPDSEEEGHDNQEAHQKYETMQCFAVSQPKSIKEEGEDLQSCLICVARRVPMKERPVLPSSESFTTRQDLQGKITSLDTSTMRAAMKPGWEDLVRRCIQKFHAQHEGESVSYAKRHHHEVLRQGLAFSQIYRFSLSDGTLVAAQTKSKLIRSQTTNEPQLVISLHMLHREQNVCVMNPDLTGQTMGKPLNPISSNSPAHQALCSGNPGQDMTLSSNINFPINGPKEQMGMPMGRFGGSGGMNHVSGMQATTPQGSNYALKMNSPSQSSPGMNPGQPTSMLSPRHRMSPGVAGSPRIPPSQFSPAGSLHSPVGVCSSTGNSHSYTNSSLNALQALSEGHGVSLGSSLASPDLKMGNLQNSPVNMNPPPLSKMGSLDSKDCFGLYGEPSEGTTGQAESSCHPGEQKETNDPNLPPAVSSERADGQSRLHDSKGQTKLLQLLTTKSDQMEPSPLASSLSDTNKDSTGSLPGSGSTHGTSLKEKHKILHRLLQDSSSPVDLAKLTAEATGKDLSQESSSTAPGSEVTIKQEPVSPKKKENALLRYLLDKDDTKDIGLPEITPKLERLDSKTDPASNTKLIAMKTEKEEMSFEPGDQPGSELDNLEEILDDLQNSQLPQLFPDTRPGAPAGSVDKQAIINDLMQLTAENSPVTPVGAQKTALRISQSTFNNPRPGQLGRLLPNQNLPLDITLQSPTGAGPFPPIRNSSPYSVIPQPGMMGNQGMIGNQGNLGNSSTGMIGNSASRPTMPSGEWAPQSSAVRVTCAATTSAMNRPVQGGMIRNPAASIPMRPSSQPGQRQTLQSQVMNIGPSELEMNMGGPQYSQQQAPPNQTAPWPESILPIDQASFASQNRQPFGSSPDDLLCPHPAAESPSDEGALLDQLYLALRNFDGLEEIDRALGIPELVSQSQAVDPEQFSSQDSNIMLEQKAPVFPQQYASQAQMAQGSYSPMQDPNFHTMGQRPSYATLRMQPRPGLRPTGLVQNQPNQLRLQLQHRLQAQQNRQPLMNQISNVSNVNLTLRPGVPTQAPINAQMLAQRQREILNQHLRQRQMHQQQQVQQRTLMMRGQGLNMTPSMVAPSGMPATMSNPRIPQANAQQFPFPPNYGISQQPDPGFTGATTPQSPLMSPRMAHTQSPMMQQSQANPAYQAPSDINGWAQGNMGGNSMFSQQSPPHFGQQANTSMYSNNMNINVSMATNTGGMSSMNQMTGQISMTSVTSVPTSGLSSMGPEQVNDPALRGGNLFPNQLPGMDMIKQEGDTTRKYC
# The other results are listed elsewhere or left out.
# Tests used:
# Test in all cases: log2 fold change, soluble protein after heating vs DMSO (PISA); higher = thermal stabilisation; K562 lysate, 10 uM; active = over 0.2 and 3.5 SD of the protein, either way, in both replicates (recomputed)
# vemurafenib = compound: CCCS(=O)(=O)Nc1ccc(F)c(C(=O)c2c[nH]c3ncc(-c4ccc(Cl)cc4)cc23)c1F [vemurafenib]
# Outline: (§1)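 Quantification was by TMTpro 16plex LC-MS/MS with equalised channel sums, applied to the supernatant after 21,000xg for 90 min. Samples were crude K562 extract at 1 mg/mL protein in PBS pH 7.4 with 1 mM MgCl2, treated with 10 μM compound for 30 min, heated for 3 min across 48°C-58°C, pooled and brought to 0.5% NP-40 at 4°C. Values are log-two fold changes in thermal stability relative to solvent controls, from duplicates.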
# [1] = compound: CCCS(=O)(=O)Nc1ccc(F)c(C(=O)c2c[nH]c3ncc(Cl)cc23)c1F
# Outline: as §1
# barasertib = compound: CCN(CCCOc1ccc2c(Nc3cc(CC(=O)Nc4cccc(F)c4)[nH]n3)ncnc2c1)CCOP(=O)(O)O [barasertib]
# Outline: as §1
# [2] = compound: CC[C@@H]1C(=O)N(C)c2cnc(Nc3ccc(C(=O)NC4CCN(C)CC4)cc3OC)nc2N1C1CCCC1
# Outline: as §1
# volasertib = compound: CC[C@@H]1C(=O)N(C)c2cnc(Nc3ccc(C(=O)N[C@H]4CC[C@H](N5CCN(CC6CC6)CC5)CC4)cc3OC)nc2N1C(C)C [volasertib]
# Outline: as §1
# [3] = compound: CCn1c(C(=O)N(C2CC2)C2CC2)cc2c3c(ncn3C)c(Nc3cc(C)n(C)n3)nc21
# Outline: as §1
# [4] = compound: CCn1cc(-c2ccnc3[nH]c(-c4cccc(CN(C)C)c4)cc23)c(-c2ccc(NC(=O)N(C)C)cc2)n1
# Outline: as §1
# [5] = compound: CN1CCC(CNc2ccc3ncc(-c4cccc(OC(F)(F)F)c4)n3n2)CC1
# Outline: as §1
# saracatinib = compound: CN1CCN(CCOc2cc(OC3CCOCC3)c3c(Nc4c(Cl)ccc5c4OCO5)ncnc3c2)CC1 [saracatinib]
# Outline: as §1
# sotrastaurin = compound: CN1CCN(c2nc(C3=C(c4c[nH]c5ccccc45)C(=O)NC3=O)c3ccccc3n2)CC1 [sotrastaurin]
# Outline: as §1
# alvocidib = compound: CN1CC[C@H](c2c(O)cc(O)c3c(=O)cc(-c4ccccc4Cl)oc23)[C@H](O)C1 [alvocidib]
# Outline: as §1
# Tubastatin A = compound: CN1CCc2c(c3ccccc3n2Cc2ccc(C(=O)NO)cc2)C1 [Tubastatin A]
# Outline: as §1
# [6] = compound: CNC(=O)C1=CC=CC=C1NC2=NC(=NC=C2Cl)NC3=C(C=C(C=C3)N4CCOCC4)OC
# Outline: as §1
# defactinib = compound: CNC(=O)c1ccc(Nc2ncc(C(F)(F)F)c(NCc3nccnc3N(C)S(C)(=O)=O)n2)cc1 [defactinib]
# Outline: as §1
# [7] = compound: CNc1nc(-c2ccc3c(N)n[nH]c3c2)cc(N2C[C@@H](C(=O)NC3CCCCC3)CC[C@H]2C)n1
# Outline: as §1
# encorafenib = compound: COC(=O)N[C@@H](C)CNc1nccc(-c2cn(C(C)C)nc2-c2cc(Cl)cc(NS(C)(=O)=O)c2F)n1 [encorafenib]
# Outline: as §1
# [8] = compound: COC(=O)[C@H](CCSC)NC(=O)C1=C(C=C(C=C1)NC[C@H](CS)N)C2=CC=CC=C2
# Outline: as §1
# alisertib = compound: COc1cc(Nc2ncc3c(n2)-c2ccc(Cl)cc2C(c2c(F)cccc2OC)=NC3)ccc1C(=O)O [alisertib]
# Outline: as §1
# [9] = compound: COc1cc2nc(-c3cc(F)ccc3O)nc(N[C@@H]3CNC[C@H]3C(C)(C)O)c2cc1OC
# Outline: as §1
# gefitinib = compound: COc1cc2ncnc(Nc3ccc(F)c(Cl)c3)c2cc1OCCCN1CCOCC1 [gefitinib]
# Outline: as §1
Target,log2 fold change (vemurafenib),log2 fold change [1],log2 fold change (barasertib),log2 fold change [2],log2 fold change (volasertib),log2 fold change [3],log2 fold change [4],log2 fold change [5],log2 fold change (saracatinib),log2 fold change (sotrastaurin),log2 fold change (alvocidib),log2 fold change (Tubastatin A),log2 fold change [6],log2 fold change (defactinib),log2 fold change [7],log2 fold change (encorafenib),log2 fold change [8],log2 fold change (alisertib),log2 fold change [9],log2 fold change (gefitinib)
NAT1 (UniProt P18440),inactive: 0.04,inactive: -0.003,inactive: -0.104,inactive: 0.003,inactive: 0.009,inactive: -0.012,inactive: -0.149,inactive: -0.014,inactive: -0.001,inactive: 0.078,inactive: 0.038,inactive: -0.087,inactive: -0.025,inactive: 0.05,inactive: -0.046,inactive: -0.02,inactive: 0.006,inactive: 0.035,inactive: 0.039,inactive: 0.031
NAPRT (UniProt Q6XQN6),inactive: -0.035,inactive: 0.001,inactive: -0.027,inactive: -0.049,inactive: 0,inactive: 0.028,inactive: 0.077,inactive: -0.032,inactive: -0.022,inactive: -0.047,inactive: 0.015,inactive: 0,inactive: -0.009,inactive: 0.005,inactive: -0.07,inactive: 0.007,inactive: -0.022,inactive: 0.012,inactive: -0.032,inactive: 0.021
MYO18A (UniProt Q92614),inactive: 0.01,inactive: 0.006,inactive: -0.01,inactive: 0.036,inactive: -0.03,inactive: -0.004,inactive: -0.024,inactive: 0.022,inactive: -0.004,inactive: 0.01,inactive: 0,inactive: 0.003,inactive: -0.002,inactive: 0.012,inactive: 0.043,inactive: -0.006,inactive: 0.006,inactive: -0.018,inactive: 0.016,inactive: 0.009
NARS2 (UniProt Q96I59),inactive: 0.022,inactive: 0.028,inactive: 0,inactive: -0.025,inactive: -0.067,inactive: 0.041,inactive: -0.091,inactive: 0.027,inactive: 0.001,inactive: -0.024,inactive: 0.013,inactive: -0.157,inactive: -0.046,inactive: 0.014,inactive: -0.04,inactive: -0.01,inactive: 0.039,inactive: -0.006,inactive: -0.01,inactive: -0.016
NAF1 (UniProt Q96HR8),inactive: 0.023,inactive: -0.009,inactive: 0.026,inactive: 0.042,inactive: 0.056,inactive: 0.044,inactive: -0.019,inactive: 0.011,inactive: 0.043,inactive: -0.069,inactive: -0.003,inactive: -0.028,inactive: 0.016,inactive: -0.015,inactive: -0.028,inactive: -0.015,inactive: -0.038,inactive: 0,inactive: -0.063,inactive: -0.006
NAA50 (UniProt Q9GZZ1),inactive: -0.002,inactive: 0.009,inactive: -0.004,inactive: 0.017,inactive: -0.005,inactive: 0.054,inactive: -0.062,inactive: 0.014,inactive: -0.004,inactive: 0.019,inactive: 0.03,inactive: -0.062,inactive: 0.012,inactive: -0.017,inactive: 0.03,inactive: -0.066,inactive: -0.002,inactive: -0.012,inactive: 0.017,inactive: -0.038
NDC1 (UniProt Q9BTX1),inactive: 0.053,inactive: -0.051,inactive: 0.075,inactive: 0.081,inactive: 0.016,inactive: -0.02,inactive: -0.3,inactive: 0.155,inactive: 0.032,inactive: 0.011,inactive: -0.131,inactive: -0.046,inactive: -0.001,inactive: -0.058,inactive: -0.044,inactive: 0.03,active: -0.297,inactive: 0.011,inactive: 0.047,inactive: -0.031
NCS1 (UniProt P62166),inactive: 0.014,inactive: 0,inactive: 0.097,inactive: 0.013,inactive: 0.009,inactive: -0.025,inactive: -0.182,inactive: 0.129,inactive: 0.024,inactive: 0.014,inactive: -0.055,inactive: 0.069,inactive: 0.007,inactive: 0.046,inactive: -0.083,inactive: 0.001,inactive: 0.012,inactive: -0.018,inactive: 0.016,inactive: -0.015
NCL (UniProt P19338),inactive: 0.01,inactive: -0.026,inactive: -0.016,inactive: -0.008,inactive: 0.024,inactive: -0.026,inactive: 0.005,inactive: -0.038,inactive: -0.001,inactive: -0.001,inactive: 0.029,inactive: 0.038,inactive: -0.028,inactive: -0.017,inactive: 0.008,inactive: -0.03,inactive: 0.005,inactive: -0.004,inactive: 0.001,inactive: -0.001
MYOM1 (UniProt P52179),inactive: 0.015,inactive: -0.082,inactive: 0.021,inactive: 0.049,inactive: 0.123,inactive: -0.356,inactive: -0.185,inactive: 0.088,inactive: -0.086,inactive: -0.163,inactive: 0.039,inactive: -0.033,inactive: -0.092,inactive: 0.194,inactive: 0.139,inactive: 0.065,inactive: -0.011,inactive: 0.215,inactive: -0.06,inactive: 0.026
NBAS (UniProt A2RRP1),inactive: 0.026,inactive: -0.027,inactive: 0.117,inactive: -0.172,inactive: -0.11,inactive: 0.057,inactive: -0.012,inactive: -0.036,inactive: 0.049,inactive: 0.032,inactive: 0.032,inactive: -0.161,inactive: 0.012,inactive: 0,inactive: -0.017,inactive: 0.014,inactive: 0.069,inactive: 0.048,inactive: 0.033,inactive: -0.042
NBEA (UniProt Q8NFP9),inactive: 0.017,inactive: 0.022,inactive: -0.006,inactive: -0.048,inactive: -0.052,inactive: -0.014,inactive: -0.08,inactive: 0.1,inactive: 0.08,inactive: 0.014,inactive: -0.114,inactive: -0.046,inactive: 0.006,inactive: 0.018,inactive: -0.042,inactive: 0.05,inactive: 0,inactive: 0.009,inactive: -0.026,inactive: -0.028
NAA10 (UniProt P41227),inactive: 0.008,inactive: -0.002,inactive: -0.017,inactive: -0.022,inactive: -0.014,inactive: 0.031,inactive: 0.066,inactive: -0.028,inactive: 0.011,inactive: -0.004,inactive: 0.026,inactive: -0.003,inactive: 0.009,inactive: -0.013,inactive: -0.012,inactive: 0.005,inactive: 0.015,inactive: 0.01,inactive: -0.005,inactive: -0.015
NCOA5 (UniProt Q9HCD5),inactive: -0.133,inactive: 0.013,inactive: 0.005,inactive: 0.048,inactive: -0.002,inactive: -0.044,inactive: -0.087,inactive: -0.008,inactive: 0,inactive: -0.014,inactive: 0.003,inactive: -0.118,inactive: 0.002,inactive: 0.071,inactive: 0.037,inactive: 0.063,inactive: -0.007,inactive: 0.045,inactive: -0.006,inactive: 0.123
NCOA2 (UniProt Q15596),inactive: 0.072,inactive: 0.137,inactive: 0.035,inactive: -0.01,inactive: -0.059,inactive: 0.034,inactive: 0.001,inactive: 0.03,inactive: 0.036,inactive: 0.015,inactive: 0.009,inactive: 0.038,inactive: 0.02,inactive: -0.002,inactive: 0.094,inactive: 0.072,inactive: 0.013,inactive: -0.09,inactive: 0.146,inactive: -0.104
MYL12B (UniProt O14950),inactive: 0,inactive: 0.02,inactive: -0.032,inactive: 0.048,inactive: -0.009,inactive: 0.026,inactive: 0.169,inactive: -0.012,inactive: 0,inactive: -0.009,inactive: 0.012,inactive: -0.006,inactive: 0.002,inactive: 0.003,inactive: 0.025,inactive: -0.002,inactive: -0.042,inactive: -0.019,inactive: -0.005,inactive: -0.009

# An excerpt of these results, bar-delimited.
Target | log2 fold change (vemurafenib) | log2 fold change [1] | log2 fold change (barasertib) | log2 fold change [2] | log2 fold change (volasertib) | log2 fold change [3] | log2 fold change [4] | log2 fold change [5] | log2 fold change (saracatinib) | log2 fold change (sotrastaurin) | log2 fold change (alvocidib) | log2 fold change (Tubastatin A) | log2 fold change [6] | log2 fold change (defactinib) | log2 fold change [7] | log2 fold change (encorafenib) | log2 fold change [8] | log2 fold change (alisertib) | log2 fold change [9] | log2 fold change (gefitinib)
NCL (UniProt P19338) | inactive: 0.01 | inactive: -0.026 | inactive: -0.016 | inactive: -0.008 | inactive: 0.024 | inactive: -0.026 | inactive: 0.005 | inactive: -0.038 | inactive: -0.001 | inactive: -0.001 | inactive: 0.029 | inactive: 0.038 | inactive: -0.028 | inactive: -0.017 | inactive: 0.008 | inactive: -0.03 | inactive: 0.005 | inactive: -0.004 | inactive: 0.001 | inactive: -0.001
MYOM1 (UniProt P52179) | inactive: 0.015 | inactive: -0.082 | inactive: 0.021 | inactive: 0.049 | inactive: 0.123 | inactive: -0.356 | inactive: -0.185 | inactive: 0.088 | inactive: -0.086 | inactive: -0.163 | inactive: 0.039 | inactive: -0.033 | inactive: -0.092 | inactive: 0.194 | inactive: 0.139 | inactive: 0.065 | inactive: -0.011 | inactive: 0.215 | inactive: -0.06 | inactive: 0.026
